± gives the standard deviation. The list shows a part of the results, in another mix than the full data. The uncertainty is large for many entries.
Test system: MILI (PIWIL2) piRISC loaded with piRNA #2 (26 nt)
Assay: pre-steady-state target cleavage rate (min^-1); MIWI and MILI are mouse PIWI proteins and EfPiwi is from a freshwater sponge; tags in brackets are library labels; higher = faster piRNA-guided slicing of the target
Conditions: guide: piRNA #2 5'p-UUAGGUAACCCAGUAGAUCCAGAGGA; auxiliary factor: 500 nM mouse GTSF1
Procedure: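 Cleave-'n-Seq: a library of target RNAs (target site embedded in constant flanks, ACAGCATTCCGCGTTAGTGATATCCG... 5' flank; DNA-blocked outside the site) at 0.1 nM was incubated with 1 nM active mouse MILI or MIWI piRISC (synthetic 5'-monophosphorylated piRNA guide) with or without 500 nM mouse GTSF1 at 33 °C for 1 min to 16 h. Uncleaved targets were sequenced and normalised to non-target controls, and the pooled three trials were fitted to a burst-and-steady-state model to give the pre-steady-state cleavage rate (min^-1; k3 is constrained to at most 1e-4). Sequence is the target site only; target names encode pairing extent (gX:gY) and contiguous / 1-mismatch / 2-mismatch / bulge geometry. Fits with R² ≤ 0 are excluded.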

| Sequence | pre-steady-state target cleavage rate |
| --- | --- |
| CUUAAGGAGACCUAGAUGUGGGUUACCUAG [g2:g12:cont:t1G] | 0.000253 ± 0.032 |
| CUUAAGGACUGGAUCUACUGGGUUACCAUAA | 0.0062 ± 0.0082 |
| CUUAAGGAGACCUAGUACUGGGUUACCUAA | 0.000567 ± 0.0079 |
| CUUAAGGAGACCUUCGUACUGGGUUACCUAA | 0.000769 ± 0.021 |
| CUUAAGGAGACGAUCUACUGGGUUACUUAA | 0.000826 ± 0.012 |
| CUUAAGGAGACGAUCUACUGGGUUACCCAA | 0.00186 ± 0.007 |
| CUUAAGGAGACGAUCUACUGGAUUACCUAA | 0.00108 ± 0.015 |
| CUUAAGGAGACGAUCUACAGGGUUACGUAA | 0.000591 ± 0.0082 |
| CUUAAGCACUGGAUCUACUCGGUUACCUAA | 0.000739 ± 0.022 |
| CUUAAGGAGACGAUCUACUGGGUUACGCUAA | 0.000629 ± 0.01 |
| CUUAAGGAGACGAUCCACUGGGUUACCUAA | 0.00487 ± 0.0056 |
| CUUAAGGAGACCUAGAUCUCCGUUACCUAA | 0.000395 ± 0.023 |
| CUUAUCCUCUGGUUCUACUGGGUUUCCUAA | 2.2 ± 1.7 |
| CUUAAGGAGACCAUCUUCUGCGUUACCUAA | 0.000704 ± 0.0085 |
| CUUAAGGAGACCAUCAACUGGCUUACCUAA | 0.000182 ± 0.035 |
| CUUAAGGUCUGGAUCUACUGGGUAACCAAA | 0.000926 ± 0.011 |
| CUUAAGGAGAGGAUCCUACUGGGUUACCUAA | 0.000939 ± 0.0058 |
| CUUAAGGAGACCAUCUACUGGGUAUACCUAA | 0.000713 ± 0.014 |
| CUUAAGGUCUGGAUCUAGACGGUUACCUAA | 0.00126 ± 0.01 |
| CUUAAGGACUCGAUCUACUCGGUUACCUAA | 0.000356 ± 0.039 |
| CUUAAGGAGACCUUCUACUGGGUUACGUAA | 0.000752 ± 0.011 |
| CUUAAGGAGUGCAUCUACUGGGUUACGUAA | 0.000759 ± 0.0099 |
| CUUAAGGACUGGAUCUAGUGCGUUACCUAA | 0.00155 ± 0.012 |

| Sequence | pre-steady-state target cleavage rate |
| --- | --- |
| CUUAAGGAGACGAUCUACUCGGGUUACCUAA | 0.000875 ± 0.013 |
| CUUAAGGAGUGGAUCUCUGGGUUACCUAA | 0.000774 ± 0.03 |
| CUUAAGGAGUGGAUCUACUGGAUUACCUAA | 0.00236 ± 0.0092 |
| CUUAUCCUCUGGAUCUUCUGGCUUACCUAA | 0.000416 ± 0.026 |
| CUUAAGGAGACGAUCUACUGGGUUACGUUA | 0.000486 ± 0.019 |
| CUUAUCCUCUGGGAUCUACUGGGUUACCUAA | 0.137 ± 0.023 |
| CUUAAGGUCUGGAUCUACUGCGAUACCUAA | 0.000891 ± 0.013 |
| CUUAAGGAGUGGAUCUACUGGGUAUCCUAA | 0.00173 ± 0.0056 |
| CUUAAGGAGACCAUCUACUGGGUUACCAA | 0.000568 ± 0.016 |
| CUUAUCCUCUGGAUCUAGACCCAAUGGAUA [g14:g26:cont:t1A] | 0.000373 ± 0.024 |
| CUUAAGGAGUGCAUCUACUGGGUUACCAAA | 0.00197 ± 0.0061 |
| CUUAAGCUCUGGAACUACUGGCUUACCUAA | 0.00125 ± 0.0082 |
| CUUAAGGAGAGGAUCAACAGGGUUACCUAA | 0.000359 ± 0.011 |
| CUUAAGGAGACCUAGUACUGGGUUACCUCAA | 0.000341 ± 0.031 |
| CUUAACCUCAGCAUCUACUGGGUUACCUAA | 0.111 ± 0.027 |
| CUUAAGGUCUGGAUCUACUCGGGUUACCUAA | 0.000576 ± 0.02 |
| CUUAAGGAGUGCGAUCUACUGGGUUACCUAA | 0.00152 ± 0.0092 |
| CUUAAGGACUGGAUCUACUGAGGUUACCUAA | 0.000386 ± 0.036 |
| CUUAAGGAGACCAUCUACUGGCAUACCUAA | 0.000265 ± 0.015 |
| CUUAAGGACUGGUUCUACUGGGUUAGCUAA | 0.00522 ± 0.0073 |
| CUUAAGGAGACCAUCUACUGCGUUUCCUAA | 0.000253 ± 0.029 |
| CUUAAGGAGACCAUCUACAGGGUUACCAAA | 0.000812 ± 0.011 |
| CUUAAGGAGACCAUCCUACUGGGUUACCUAA | 0.000923 ± 0.011 |

Part of the list above in another layout:
Sequence | pre-steady-state target cleavage rate
CUUAAGGAGACCUAGAUGUGGGUUACCUAG [g2:g12:cont:t1G] | 0.000253 ± 0.032
CUUAAGGACUGGAUCUACUGGGUUACCAUAA | 0.0062 ± 0.0082
CUUAAGGAGACCUAGUACUGGGUUACCUAA | 0.000567 ± 0.0079
CUUAAGCACUGGAUCUACUCGGUUACCUAA | 0.000739 ± 0.022
CUUAAGGAGACCUAGAUCUCCGUUACCUAA | 0.000395 ± 0.023
CUUAAGGAGACCAUCUUCUGCGUUACCUAA | 0.000704 ± 0.0085
CUUAAGGAGAGGAUCCUACUGGGUUACCUAA | 0.000939 ± 0.0058
CUUAAGGUCUGGAUCUAGACGGUUACCUAA | 0.00126 ± 0.01
CUUAAGGAGACCUUCUACUGGGUUACGUAA | 0.000752 ± 0.011
CUUAUCCUCUGGGAUCUACUGGGUUACCUAA | 0.137 ± 0.023
CUUAAGGUCUGGAUCUACUGCGAUACCUAA | 0.000891 ± 0.013
CUUAAGGAGACCAUCUACUGGGUUACCAA | 0.000568 ± 0.016
CUUAAGGAGACCUAGUACUGGGUUACCUCAA | 0.000341 ± 0.031
CUUAAGGACUGGAUCUACUGAGGUUACCUAA | 0.000386 ± 0.036
CUUAAGGACUGGUUCUACUGGGUUAGCUAA | 0.00522 ± 0.0073
CUUAAGGAGACCAUCUACUGCGUUUCCUAA | 0.000253 ± 0.029
CUUAAGGAGACCAUCCUACUGGGUUACCUAA | 0.000923 ± 0.011

Additional entries:

| Sequence | pre-steady-state target cleavage rate |
| --- | --- |
| CUUAAGGAGUGUAUCUACUGGGUUACCUAA | 0.00376 ± 0.0065 |
| CUUAAGGAGACCUUCUAUCUGGGUUACCUAA | 0.000878 ± 0.013 |
| CUUAAGGAGAGGAUCUUCUGGGAUACCUAA | 0.000599 ± 0.02 |
| CUUAAGGAGACCUUCUACUGGCUUACCUAA | 0.000345 ± 0.01 |
| CUUAUCCUCUGGAUCUACUGGGUUACCAAA | 0.13 ± 0.023 |
| CUUAAGGAGAGGAUCUACUGGUUUACCUAA | 0.00185 ± 0.0053 |
| CUUAAGGAGACCUACUACCGGGUUACCUAA | 0.000361 ± 0.028 |
| CUUAAGGAGACCUACUAACUGGGUUACCUAA | 0.000187 ± 0.026 |
| CUUAAGGAGACCAUCUACUGCGUUACGUAA | 0.000394 ± 0.013 |
| CUUAAGGAGACCUUCGACUGGGUUACCUAA | 0.000501 ± 0.017 |
| CUUAAGGAGAGGAUCUAAUGGGUUACCUAA | 0.00371 ± 0.0051 |
| CUUAAGGAGACGAUCUAGUGCGUUACCUAA | 0.000763 ± 0.013 |
| CUUAAGCUCUGGAUCUACUCGGUUACCUAA | 0.0023 ± 0.006 |
| CUUAACCUCUGGUUCUACUGGGUUACCAAA | 0.134 ± 0.037 |
| CUUAAGGAGAGGAUCUACUGGGUACCUAA | 0.000511 ± 0.013 |
| CUUAAGGAGACCUUACUACUGGGUUACCUAA | 0.000552 ± 0.02 |
| CUUAAGGAGACCUAGUUCUGGGUUACCAAA | 0.000209 ± 0.036 |
| CUUAAGGUCUGGAUCAACUGCGUUACCUAA | 0.00384 ± 0.0068 |
| CUUAAGGAGACCUUCUACAGGGUUACCAAA | 0.000119 ± 0.037 |
| CUUAAGGAGACGAUCUACUGGGUAUCCUAA | 0.00074 ± 0.0091 |
| CUUAAGGAGACCUUCUCACUGGGUUACCUAA | 0.000605 ± 0.017 |
| CUUAAGGAGUGGAUCUACUUGGUUACCUAA | 0.00143 ± 0.0061 |
| CUUAAGGAGACGAUCUACUGGGUAACCUUA | 0.00045 ± 0.017 |

| Sequence | pre-steady-state target cleavage rate |
| --- | --- |
| CUUAAGGUCUGGAUCUAGUGCGUUACCUAA | 0.00201 ± 0.004 |
| CUUAAGGAGACCUACUAGUGGGUUACCUAA | 0.000248 ± 0.029 |
| CUUAAGGAGACCAUCUACUGCGGUUACCUAA | 0.000826 ± 0.0092 |
| CUUAACCUCUGGAUCAUACUGGGUUACCUAA | 0.00307 ± 0.0043 |
| CUUAAGGAGACCAUGAACUGGGUUACCUAA | 0.000117 ± 0.064 |
| CUUAACCUCUGGUUCUACUGGGUUACGUAA | 0.12 ± 0.043 |
| CUUAAGGAGACGAUCUACUGCGUAACCUAA | 0.000626 ± 0.0089 |
| CUUAAGGAGUGGAUCGUACUGGGUUACCUAA | 0.000269 ± 0.025 |
| CUUAUCCUCUGGAUCUACUGGGUUAGGAAA | 0.00108 ± 0.01 |
| CUUAAGGUCUGGAUCUACUGCGUAACCUAA | 0.00226 ± 0.0071 |
| CUUAAGGAGACGAUCUACUGGGAUUACCUAA | 0.00327 ± 0.0033 |
| CUUAAGGAGACGAACUACUGCGUUACCUAA | 0.000135 ± 0.024 |
| CUUAAGGAGACGAACUACUGGGUUACCUUA | 0.000118 ± 0.046 |
| CUUAAGGAGAGGAUCUGACUGGGUUACCUAA | 0.000115 ± 0.041 |
| CUUAAGGAGACCUACUACUGGGUUACCGUAA | 0.000145 ± 0.091 |
| CUUAAGGAGUGGAUCUACUGGGUUAGCUUA | 0.000494 ± 0.022 |
| CUUAAGGAGACGAUGUACUGCGUUACCUAA | 0.000502 ± 0.013 |
| CUUAAGGACUGCAUCUACUGCGUUACCUAA | 0.00229 ± 0.015 |
| CUUAAGGAGUGGAUCUACUGCGUUUCCUAA | 0.0011 ± 0.0069 |
| CUUAUCCUCUGGAUCUACUGGCAAACCUAA | 0.00056 ± 0.015 |
| CUUAAGGAGACCUUCAACUGGGUUACCUUA | 0.000148 ± 0.042 |
| CUUAAGGAGACCAACUACAGGGUUACCUAA | 0.000783 ± 0.0099 |

From the supplement of paper PMC10338343
